Assay results from publication PMC6700475.
No constants are given. Whether binding was seen depends on the method and setting. In cells and extracts the contact can be indirect. Some binding calls cover weakened binding; strength is not graded here.

The chains behind the UniProt entries cited, without tags or fusion partners.
UniProt Q15554: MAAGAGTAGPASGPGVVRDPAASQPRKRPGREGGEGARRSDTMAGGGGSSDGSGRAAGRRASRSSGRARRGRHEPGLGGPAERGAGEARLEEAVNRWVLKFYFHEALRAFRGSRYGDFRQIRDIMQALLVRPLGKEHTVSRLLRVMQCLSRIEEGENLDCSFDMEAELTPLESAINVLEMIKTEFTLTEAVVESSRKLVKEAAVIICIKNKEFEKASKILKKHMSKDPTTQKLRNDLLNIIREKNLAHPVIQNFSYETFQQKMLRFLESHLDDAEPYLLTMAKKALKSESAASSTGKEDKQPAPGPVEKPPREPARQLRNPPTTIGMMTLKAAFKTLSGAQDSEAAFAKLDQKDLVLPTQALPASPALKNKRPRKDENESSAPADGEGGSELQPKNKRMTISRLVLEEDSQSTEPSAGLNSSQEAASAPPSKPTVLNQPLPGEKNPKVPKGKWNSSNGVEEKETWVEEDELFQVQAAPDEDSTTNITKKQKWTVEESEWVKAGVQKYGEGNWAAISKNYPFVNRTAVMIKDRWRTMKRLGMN
UniProt Q99497: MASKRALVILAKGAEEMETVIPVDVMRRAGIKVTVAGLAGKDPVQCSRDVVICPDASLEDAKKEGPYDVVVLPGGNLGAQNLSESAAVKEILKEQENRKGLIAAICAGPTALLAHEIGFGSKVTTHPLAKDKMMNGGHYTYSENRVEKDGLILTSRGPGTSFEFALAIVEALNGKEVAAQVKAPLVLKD

What was measured:
[1] = biological target: T1, phosphoglycerate kinase 1 (PGK1) (human (endogenous in A2780 and HCT116)) (UniProt P00558); assay: co-IP; reciprocal co-immunoprecipitation of endogenous PGK1 (ab90787) and DJ1 (ab18257) on Dynabeads M270 from A2780 lysates, 30 minutes at 4 °C, 100 mM NaCl; cells treated with vehicle or 10 nM CRT0063465 for 1 hour; immunoblot
T1 sequence: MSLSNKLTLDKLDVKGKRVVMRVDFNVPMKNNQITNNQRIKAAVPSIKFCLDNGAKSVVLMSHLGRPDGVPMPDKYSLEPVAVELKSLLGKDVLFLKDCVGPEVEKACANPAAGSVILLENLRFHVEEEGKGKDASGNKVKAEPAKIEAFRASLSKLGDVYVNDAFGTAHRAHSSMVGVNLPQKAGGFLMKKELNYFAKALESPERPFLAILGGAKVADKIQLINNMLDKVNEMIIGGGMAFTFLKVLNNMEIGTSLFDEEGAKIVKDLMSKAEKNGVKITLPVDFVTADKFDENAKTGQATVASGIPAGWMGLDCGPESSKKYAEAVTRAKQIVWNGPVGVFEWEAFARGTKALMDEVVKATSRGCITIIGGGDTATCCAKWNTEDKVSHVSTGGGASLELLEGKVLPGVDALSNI

[2] = biological target: TRF2 (human (endogenous in HCT116)) (UniProt Q15554); assay: co-IP; immunoprecipitation of endogenous TRF2 (ab13579) on Dynabeads from HCT116 lysates, 30 minutes at 4 °C; cells cultured 1 week in 5 mM (physiological) or 500 μM (hypoglycemic) glucose with or without 10 nM CRT0063465; immunoblot for DJ1, PGK1, Ku80 and TRF2

binding [1]: binds | binding [2]: binds
Substance: PARK7/DJ1 (from UniProt Q99497 1-189)
